36 compounds from PubChem BioAssay AID1487 (National Center for Advancing Translational Sciences (NCATS), 2009) can be followed below.

Where “and” joins values, the source holds several entries; their conditions need not be identical. Equal values may be shown once. This is one part of the list. These are further read-outs of the screen, such as a control signal, another cell line or another target. No call is given for them. Compounds called inactive in the main read-out are mostly missing here. Words in brackets tell the shape of the fitted curve; partial curves, single points and poor fits give uncertain potencies.

The nature of this test: qHTS Assay for Modulators of Lamin A Splicing. The note with it: HeLa LMNA splicing GFP/RFP minigene ratio, 48 h. The gist of the method: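 Read-out is the ratio of GFP to DsRed2 object intensity, acquired by 488 nm laser-scanning cytometry on HeLa lamin A-EGFP minigene reporter cells. Compound incubation 48 hrs at 37 °C in Opti-MEM with 2% FBS; DMSO 0.5% final.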
[1] abbreviates: measured here: GFP splicing reporter channel.
[2] abbreviates: measured here: RFP viability control channel.

With `COc1ccc(CNC(=O)c2c(F)c(F)c(F)c(F)c2F)cc1`, the AC50 under setting [1] was 31.6 µM [falling, partial curve, poor fit].

In the case of `CCOc1ccccc1NC(=O)CSc1nccn1-c1ccc(Cl)cc1`, under setting [1], the AC50 was 35.5 µM [falling, single point].

On to `CCC(=O)Nc1cccc(-c2csc(-c3ccccc3)n2)c1`, for which the AC50 under setting [1] was 3.98 µM [falling, partial curve, poor fit].

For `O=c1[nH]c(=O)n([C@@H]2C[C@H](O)[C@H](CO)O2)cc1I`, the AC50 under setting [1] is 4.47 µM [rising, partial curve].

For `CC(C)N1CCC2(CC1)C(C#N)=C(N)NC(S)=C2C#N`, the AC50 under setting [2] is 15.8 µM [rising, single point].

In the case of `C=CCNC(=S)Nc1ccc(Br)cc1F`, the half-maximal activity concentration (AC50) under setting [2] is 22.4 µM [rising, single point].

Regarding `COc1ccc(-c2nc3cnc(Oc4cccc(Cl)c4)nc3n(C[C@H]3CCCO3)c2=O)cc1`, under setting [1], the AC50 was 12.6 µM [falling, partial curve].

Take `CCCc1nn2c(=O)cc(COC(=O)c3ccc(NC(=O)C(C)Oc4ccccc4)cc3)nc2s1` (centres undefined): the AC50 under setting [2] is 0.631 µM [falling, partial curve, poor fit].

In the case of `CCCCSCCCNC(=S)Nc1ccccc1C`, the AC50 by setting is: under setting [1], 35.5 µM [rising, single point]; under setting [2], 31.6 µM [rising, single point].

In the case of `CC(C)OP(=O)(OC(C)C)C(NC(=O)c1ccc(Br)cc1)c1ccccc1` (centres undefined), the AC50 runs as follows: under setting [1], 22.4 µM [falling, single point]; under setting [2], 15.8 µM [falling, partial curve].

Consider `CCN(C(=O)C1CCN(S(=O)(=O)c2ccc3c(c2)CCCN3C(=O)C2CCC2)CC1)c1cccc(C)c1`, for which the AC50 under setting [2] is 11.2 µM [rising, single point].

As for `CCOc1cc(/C=C(\C#N)c2nc(-c3cccs3)c(NC(C)=O)s2)ccc1O`, under setting [2], the AC50 was 10 µM [rising, partial curve].

Regarding `COC(=O)CNC(=O)C(Cc1ccccc1)NS(=O)(=O)c1ccc2c(c1)c(=O)n(C)c(=O)n2C` (centres undefined), the AC50 under setting [2] was 3.98 µM [rising, single point].

On to `O=[N+]([O-])c1ccccc1OCCOCCOc1cccc2cccnc12`, for which the AC50 under setting [2] was 0.0562 µM [rising, full curve, poor fit].

Take `C=C(C)COc1ccc(-c2[nH]ncc2-c2ccc(Br)cc2)c(O)c1`: the AC50 under setting [1] is 20 µM [rising, single point] and the AC50 under setting [2] is 35.5 µM [rising, single point].

With `Cc1ncc(C[n+]2csc(C)c2C)c(N)n1`, under setting [1], the AC50 is 0.1 µM [rising, full curve, poor fit].

Consider `COc1cccc(/C=N/NC(=O)C(=O)N/N=C/c2cccc(OC)c2O)c1O`, for which the AC50 is, setting by setting: under setting [1], 3.16 µM [falling, partial curve, poor fit]; under setting [2], 5.62 µM [rising, partial curve].

For the compound `Oc1c(I)cc(Cl)c2cccnc12`, the AC50 by setting is: under setting [1], 14.1 µM [falling, single point] and 14.1 µM [rising, partial curve, poor fit] and 11.2 µM [rising, partial curve]; under setting [2], 7.94 µM [falling, single point] and 100 nM [rising, partial curve, poor fit] and 12.6 µM [rising, partial curve].

Consider `CCCC12CN3CC(CCC)(CN(C1)C3c1c[nH]c3ccccc13)C2=O` (centres undefined), for which the AC50 under setting [1] was 8.91 µM [falling, partial curve, poor fit] and the AC50 under setting [2] was 8.91 µM [falling, partial curve, poor fit].

As to `CCOC(=O)c1c(NC(=O)COC(=O)CNC(=O)c2ccco2)sc(C(C)=O)c1C`, under setting [1], the AC50 is 20 µM [rising, single point].

Regarding `CCCn1c(O)c(N=NC(=O)c2ccco2)c2ccccc21`, under setting [2], the AC50 is 7.08 µM [rising, partial curve, poor fit].

With `CC(=O)NCCOc1ccc2oc3ccccc3c2c1`, under setting [2], the AC50 was 31.6 µM [rising, single point].

As for `CCCN1C(=O)/C(=C/c2ccc(N3CCCC3)c(C)c2)NC1=S`, under setting [1], the AC50 was 15.8 µM [rising, single point].

In the case of `O=[N+]([O-])c1cc(Cl)ccc1NCCNS(=O)(=O)c1ccccc1`, the AC50 under setting [2] is 35.5 µM [rising, single point].

As to `COc1ccc(N2CCN(C(CNS(=O)(=O)c3ccc4c(c3)OCCO4)c3ccco3)CC2)cc1` (centres undefined), the AC50 under setting [2] is 12.6 µM [rising, partial curve].

For `CCCn1c(NCc2ccccc2NS(=O)(=O)c2ccc(C)cc2)nc2ccccc21`, the AC50 under setting [2] was 12.6 µM [rising, single point].

In the case of `CC1=C(C(=O)N2CCCCC2)C2(CCC(C)CC2)OC1=O` (centres undefined), under setting [1], the AC50 is 0.0112 µM [falling, full curve, poor fit].

For `O=C(NC1CCCCCC1)c1nnc(Cc2ccc(Cl)cc2)o1`, the AC50 under setting [1] is 0.316 µM [falling, partial curve, poor fit].

Consider `COC(=O)c1sc2cccc(F)c2c1S(=O)(=O)Nc1cc(OC)cc(OC)c1`, for which, under setting [2], the AC50 was 7.08 µM [rising, partial curve].

In the case of `Cc1cc(C(F)(F)F)n(-c2nc(C(=O)N/N=C/c3ccc(F)cc3)cs2)n1`, the AC50 was 35.5 µM [falling, partial curve] under setting [1] and 35.5 µM [falling, single point] under setting [2].

For the compound `O=C(NCC1CCCO1)C(c1cccs1)N(Cc1ccccc1Cl)C(=O)c1ccc(-c2ccccc2)[nH]1` (centres undefined), the AC50 under setting [2] was 12.6 µM [rising, partial curve].

In the case of `CCOc1ccc(CC(=O)Nc2nnc3n2CCS3)cc1`, the AC50 was 0.0355 µM [falling, full curve] under setting [1] and 0.02 µM [falling, full curve, poor fit] under setting [2].

Turning to `COc1cccc(NC(=O)CSc2nccn2-c2cccc(OC)c2)c1`, the AC50 under setting [1] was 22.4 µM [rising, partial curve, poor fit].

For `Cc1ccc(Cn2cccc(NC(=O)c3ccco3)c2=O)cc1`, under setting [2], the AC50 is 12.6 µM [rising, partial curve].

Consider `CCc1ccc(-c2nc(CS(=O)CC(=O)NCCc3ccc(Cl)cc3)c(C)o2)cc1` (centres undefined), for which the AC50 under setting [1] was 1.41 µM [falling, partial curve].

`O=C1CCSC2(C(=O)N(Cc3ccc(F)cc3)c3ccccc32)N1c1ccc(F)c(F)c1` (centres undefined): under setting [1], the AC50 was 0.0708 µM [rising, full curve, poor fit].
